Data from US20230159646A1 (IBIO, published 2023).
No constants are given. Whether binding was seen depends on the method and setting. Some results given as binding are weak or reduced against the parent protein; the word gives no strength.

Protein sequences, listed by entry. Tags and fused reporters are not part of them. Lines headed by an entry give the natural chain unless they say otherwise; changes in a name come on top. Chains listed by the source or under a name are the forms on record and can include a tag or linker. Residues count along the entry.
UniProt P01589: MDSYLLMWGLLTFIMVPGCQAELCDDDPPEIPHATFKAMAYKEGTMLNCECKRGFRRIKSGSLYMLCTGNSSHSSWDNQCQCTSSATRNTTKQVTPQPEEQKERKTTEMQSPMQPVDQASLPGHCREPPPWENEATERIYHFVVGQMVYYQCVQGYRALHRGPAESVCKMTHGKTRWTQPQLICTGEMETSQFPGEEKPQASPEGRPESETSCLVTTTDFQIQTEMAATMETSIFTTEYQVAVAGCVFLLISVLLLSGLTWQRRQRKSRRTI
CD25 endogenously expressed on SUDHL-1 human lymphoma cell line and on induced human Treg (iTreg): residues 22-272 of P01589
human CD25 (Sino Biologicals, 10165-H08H): residues 22-213 of P01589
cynomolgus CD25 (Sino Biologicals, 90265-C08H) (H6WS54, form named): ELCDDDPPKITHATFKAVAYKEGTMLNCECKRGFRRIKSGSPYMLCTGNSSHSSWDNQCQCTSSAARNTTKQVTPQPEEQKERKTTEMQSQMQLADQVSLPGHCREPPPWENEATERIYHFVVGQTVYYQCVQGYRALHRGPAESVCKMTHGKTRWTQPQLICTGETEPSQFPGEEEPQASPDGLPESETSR

Assays:
[1] = molecular target: human CD25 (Sino Biologicals, 10165-H08H) (human) (UniProt P01589); assay: ELISA, immobilized human CD25
[2] = molecular target: cynomolgus CD25 (Sino Biologicals, 90265-C08H) (cynomolgus) (UniProt H6WS54); assay: ELISA, immobilized cynomolgus CD25
[3] = molecular target: CD25 endogenously expressed on SUDHL-1 human lymphoma cell line and on induced human Treg (iTreg) (human) (UniProt P01589); assay: cell binding (summary of Example 2)
[4] = molecular target: CD25 endogenously expressed on SUDHL-1 human lymphoma cell line and on induced human Treg (iTreg) (human) (UniProt P01589); assay: flow cytometry, SUDHL-1 and iTreg cells
[5] = molecular target: cynomolgus CD25 (Sino Biologicals, 90265-C08H) (cynomolgus) (UniProt H6WS54); assay: summary of the example's binding results
[6] = molecular target: human CD25 (Sino Biologicals, 10165-H08H) (human) (UniProt P01589); assay: summary of the example's binding results
[7] = molecular target: CD25 endogenously expressed on SUDHL-1 human lymphoma cell line and on induced human Treg (iTreg) (human) (UniProt P01589); assay: summary of the example's cell binding results
[8] = molecular target: CD25 endogenously expressed on SUDHL-1 human lymphoma cell line and on induced human Treg (iTreg) (human) (UniProt P01589); assay: flow cytometry, iTreg cells (legend of FIG. 18)
[9] = molecular target: CD25 endogenously expressed on SUDHL-1 human lymphoma cell line and on induced human Treg (iTreg) (human) (UniProt P01589); assay: flow cytometry, SUDHL-1 cells (legend of FIG. 13)
[10] = molecular target: CD25 endogenously expressed on SUDHL-1 human lymphoma cell line and on induced human Treg (iTreg) (human) (UniProt P01589); assay: flow cytometry at 10 µg/mL, SUDHL-1 and iTreg cells
[11] = molecular target: CD25 endogenously expressed on SUDHL-1 human lymphoma cell line and on induced human Treg (iTreg) (human) (UniProt P01589); assay: flow cytometry at 10 µg/mL, SUDHL-1 and iTreg cells (legend of FIGS. 21A-21F)

Measured: binding

B1: IBIO-101-CHO-WT (SD-889825-CW-A; IBIO-101, wild-type CHO cells) (antibody, human IgG1, kappa, V domains shown)
VH: QVQLVQSGAEVKKPGASLKISCKGSGYTFTDYAMHWVRQAPGQGLEWIGVISTYSGDAIYAQKFQGRATMTVDTSTSTAYLELSSLRSEDTAVYYCARGVTFDYWGQGTTVTVSS
VL: DIQMTQSPSSLSASVGDRVTITCRASQDISNYLEWYQQKPGKAPKLLVYNAKTLAEGVPSRFSGSGSGTDFTLTISSLQPEDFGTYYCQHHYDTPYTFGQGTKLEIKR
notes: the entries carry the plant extensin signal peptide, which is not part of the mature antibody; Human IgG1 constant region, fucosylated (WT); also called RTX-003; hD11
binds: [1] | [2] | [3] | [4] | [5] | [6] | [7] | [8] | [9] | [10] | [11]

B2: IBIO-101-CHO-afuc (SD-889825-CG-A; IBIO-101, CHO cells Afucosylated) (antibody, human IgG1, kappa, V domains shown)
VH: B1 VH
VL: B1 VL
modifications: afucosylated glycan (as printed: afucosylated)
notes: signal peptide of the entries is not part of the mature antibody; Human IgG1 constant region, afucosylated; also called RTX-003; hD11
binds: [1] | [2] | [3] | [4] | [5] | [6] | [7] | [8] | [9] | [10] | [11]

B3: IBIO-101-plant-WT (SD-889825-PW-A; IBIO-101, wild-type plant) (antibody, human IgG1, kappa, V domains shown)
VH: B1 VH
VL: B1 VL
notes: Signal peptide of the entries is not part of the mature antibody; Made in wild-type Nicotiana benthamiana; human IgG1 constant region; also called RTX-003; hD11
binds: [1] | [2] | [3] | [4] | [5] | [6] | [7] | [8] | [9] | [10] | [11]
